{"source": "patent US20110117106A1", "about": "“USES OF CALPAIN INHIBITORS TO INHIBIT INFLAMMATION” (priority 2008, published 2011)", "test_system": "PMN recruitment into the lung and airway lumen", "assay": "Adult C57BL/6 mouse P. aeruginosa infection with bronchoalveolar lavage", "format": "in vivo", "details": "2 hr infection", "protocol": "To test the effects of calpain inhibition on the transmigration of PMNs into P. aeruginosa-infected airways, bronchoalveolar lavage (BAL) experiments were performed on adult C57BL/6 mice. Mice were treated with i.p. calpeptin or vehicle and intranasally infected with P. aeruginosa for 2 hr. PMNs from BAL or whole-lung suspension were quantified by flow cytometry. Compared to vehicle-treated controls, calpeptin-treated mice had 37% fewer PMNs recruited into the whole lung and 90% fewer into the airway lumen, indicating a more pronounced effect on the epithelial junctions (FIG. 8D). […] Thus, recruitment of PMNs into the murine lung and airway lumen in response to P. aeruginosa is facilitated by calpain activity and its effects on junctional proteins at the mucosal surface.", "data": [{"smiles": "CCCC[C@@H](C=O)NC(=O)[C@H](CC(C)C)NC(=O)OCc1ccccc1", "note": "[calpeptin, Z-Leu-Nle-CHO]", "values": [{"measurement": "CXCL1 (KC) levels in the lung", "result": "did not affect"}]}]}
